In this assay the target is T1, POLR3A, the largest (catalytic) subunit of RNA polymerase III (human (endogenous in PC-3)) (UniProt O14802).
T1 sequence: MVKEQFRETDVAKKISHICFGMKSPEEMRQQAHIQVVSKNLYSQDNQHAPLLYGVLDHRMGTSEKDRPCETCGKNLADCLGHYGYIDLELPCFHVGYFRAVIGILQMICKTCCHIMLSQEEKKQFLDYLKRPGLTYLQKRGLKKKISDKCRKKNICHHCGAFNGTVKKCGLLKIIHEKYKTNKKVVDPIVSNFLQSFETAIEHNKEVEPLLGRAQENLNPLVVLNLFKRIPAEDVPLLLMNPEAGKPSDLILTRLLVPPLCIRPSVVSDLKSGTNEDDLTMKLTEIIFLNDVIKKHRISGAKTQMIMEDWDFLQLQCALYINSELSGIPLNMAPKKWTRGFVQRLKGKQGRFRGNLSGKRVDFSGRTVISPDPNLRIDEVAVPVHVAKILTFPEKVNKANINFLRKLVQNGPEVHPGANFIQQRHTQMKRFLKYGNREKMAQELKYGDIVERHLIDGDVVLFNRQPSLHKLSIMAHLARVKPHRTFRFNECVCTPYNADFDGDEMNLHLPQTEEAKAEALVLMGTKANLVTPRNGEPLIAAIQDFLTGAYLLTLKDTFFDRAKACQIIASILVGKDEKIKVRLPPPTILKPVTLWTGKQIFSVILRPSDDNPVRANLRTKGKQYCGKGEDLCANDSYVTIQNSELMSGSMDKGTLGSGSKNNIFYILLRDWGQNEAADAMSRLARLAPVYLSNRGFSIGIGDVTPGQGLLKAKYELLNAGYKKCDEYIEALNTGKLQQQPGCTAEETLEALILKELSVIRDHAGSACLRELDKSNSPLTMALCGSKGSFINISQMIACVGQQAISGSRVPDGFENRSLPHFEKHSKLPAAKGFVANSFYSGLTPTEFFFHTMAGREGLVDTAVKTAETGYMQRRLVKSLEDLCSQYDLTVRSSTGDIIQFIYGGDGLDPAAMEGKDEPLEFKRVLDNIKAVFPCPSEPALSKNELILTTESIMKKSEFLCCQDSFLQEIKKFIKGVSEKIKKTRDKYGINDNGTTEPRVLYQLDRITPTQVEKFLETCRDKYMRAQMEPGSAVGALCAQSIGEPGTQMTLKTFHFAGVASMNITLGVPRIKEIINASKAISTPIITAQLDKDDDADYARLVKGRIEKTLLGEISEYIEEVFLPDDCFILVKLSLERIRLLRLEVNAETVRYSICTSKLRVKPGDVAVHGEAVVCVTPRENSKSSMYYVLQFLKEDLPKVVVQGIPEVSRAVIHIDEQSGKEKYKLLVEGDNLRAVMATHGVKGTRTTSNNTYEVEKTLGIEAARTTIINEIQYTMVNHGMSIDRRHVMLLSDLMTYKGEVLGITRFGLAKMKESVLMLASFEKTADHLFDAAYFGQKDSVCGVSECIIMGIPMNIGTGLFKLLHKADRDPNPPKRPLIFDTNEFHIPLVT
The assay is described as follows: co-IP; PC-3 lysates incubated overnight with antiserum 1900 against POLR3A (or preimmune serum) pre-bound to Protein A magnetic beads; washed twice with TBST containing 0.5 M NaCl and once with water; eluted with 50 mM glycine pH 2; western blot for POLR3A, POLR3G, POLR3GL; cells cultured 48 h without or with 20 μM ML-60218 (Figure 2F).

By UniProt entry, the sequences of proteins in these tests, tags left out.
UniProt O15318: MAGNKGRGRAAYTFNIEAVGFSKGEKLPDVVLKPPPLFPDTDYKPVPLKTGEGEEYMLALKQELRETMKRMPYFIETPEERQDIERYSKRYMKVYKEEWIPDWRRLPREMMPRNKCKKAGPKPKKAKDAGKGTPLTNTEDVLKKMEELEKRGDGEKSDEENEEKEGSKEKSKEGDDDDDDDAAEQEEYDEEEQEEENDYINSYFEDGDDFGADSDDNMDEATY

Here are results for two molecules from paper PMC6486637.

No constants are given. Whether binding was seen depends on the method and setting. Binding seen in cells or lysates may run through a third protein. Some binding calls cover weakened binding; strength is not graded here.

On to “POLR3G (RPC7, RPC32α), RNA polymerase III subunit (from UniProt O15318 1-223)”, for which the binding entry was “binds”.

B1: POLR3GL (RPC7L, RPC32β), RNA polymerase III subunit, paralogue of POLR3G (protein, UniProt Q9BT43 1-218)
chain: MASRGGGRGRGRGQLTFNVEAVGIGKGDALPPPTLQPSPLFPPLEFRPVPLPSGEEGEYVLALKQELRGAMRQLPYFIRPAVPKRDVERYSDKYQMSGPIDNAIDWNPDWRRLPRELKIRVRKLQKERITILLPKRPPKTTEDKEETIQKLETLEKKEEEVTSEEDEEKEEEEEKEEEEEEEYDEEEHEEETDYIMSYFDNGEDFGGDSDDNMDEAIY
For B1, the binding result was “binds”.
